Test results: patent US12403106B2, “Prophylactic skin treatment for radiation therapy” (THE BOARD OF TRUSTEES OF THE LELAND STANFORD JUNIOR …, priority 2019, dated 2025)
At least one structure is not confirmed: it was looked up by name or label, or the drawing left a doubt.

Legend:
irradiated scalp = test: Laser Doppler analysis of perfusion of irradiated scalp, DFO injection (Example 1); type: in vivo, mice; settings: treatments 5 to 7 of 1 mg DFO every other day
Method: Adult 60-day-old male Cr1:NU-Fox1NU immunocompromised mice were used for experiments in this study. Twelve mice were treated with a total of 30 Gy external beam radiation, delivered as six fractionated doses of 5 Gy each over 12 days, followed by 5 weeks of recovery. An additional six non-irradiated mice were used as healthy controls for laser Doppler analysis (LDA) and skin analysis. Irradiated mice were divided into two treatment groups: a DFO experimental group and saline control group. Following recovery, mice underwent injection of either DFO (1 mg in 100 μl saline) or 100 μl of saline alone beneath the dermis every other day for a total of seven treatments.
Laser Doppler Analysis (“LDA”) was performed to measure perfusion at the irradiated site using a Perimed PIM 3 laser Doppler perfusion imager (Datavagen, Sweden). The signal generated by the LDA, laser Doppler perfusion index (LDPI), was used for comparative purposes. LDPI is a product of the blood cell velocity and concentration and is represented by a color spectrum, with black/dark blue representing low perfusion and red representing high perfusion. LDA was performed prior to irradiation, following completion of irradiation and recovery, and then twenty-four hours following each treatment with DFO or saline. […]
Five images were taken of each mouse, and the average LDPI of the five images was recorded. […]

irradiated skin = test: Scalp skin histology: CD31 staining, dermal thickness, picrosirius red collagen (Example 1); type: in vivo, mice
fat grafts = test: Fat graft volume retention, transdermally administered DFO (Example 2); type: in vivo; settings: after two weeks, transdermal DFO preconditioned irradiated mice vs devices lacking DFO
irradiated scalp skin = test: Skin stiffness (Young's modulus from stress-strain curves) (Example 2); type: in vivo, mice; settings: irradiated scalp skin treated with DFO via transdermal delivery system after radiation therapy
irradiated mouse scalps = test: Laser Doppler analysis, prophylactic or therapeutic DFO TDDS (Example 3); type: in vivo, mice; settings: six weeks following RT
[1] = system: irradiated mouse scalp skin; test: Scalp skin histology: CD31, dermal thickness, collagen fiber networks (Example 3); type: in vivo, mice; settings: six weeks following irradiation

CC(=O)N(O)CCCCCNC(=O)CCC(=O)N(O)CCCCCNC(=O)CCC(=O)N(O)CCCCCN [DFO, deferoxamine]
change in perfusion (LDPI) with three additional treatments (irradiated scalp): did not result in any significant increase to perfusion
vascularity by CD31 staining following fat grafting (irradiated skin; 8 weeks after fat grafting, DFO preconditioned vs saline control fat grafted mice, difference not significant): slightly more CD31 staining
collagen content (picrosirius red staining) (irradiated skin; irradiated skin after DFO treatment vs saline, not statistically significant): slight decrease in collagen content
vascularity by CD31 staining (irradiated skin; irradiated skin after DFO treatment, before fat grafting, vs saline): increased CD31 staining
fat graft volume retention (fat grafts): retained more fat volume
skin stiffness (Young's modulus) (irradiated scalp skin): reduced skin stiffness
tissue perfusion by LDA (irradiated mouse scalps; prophylactic DFO (before, during and after irradiation)): tended to have improvements in perfusion
tissue perfusion by LDA (irradiated mouse scalps; therapeutic DFO (from 4 weeks after irradiation, for 2 weeks)): tended to have improvements in perfusion
skin vascularization (CD31) ([1]; DFO post irradiation only, p<0.001): significantly less vascularization than the skin of non-irradiated mice
dermal thickness ([1]; irradiated DFO-treated skin): more similar to non-irradiated skin
skin vascularization (CD31) ([1]; prophylactic DFO, p<0.05): significantly more vascularized than the skin of irradiated mice not receiving any DFO
